Data taken from publication PMC9488889 (Nature Communications, 2022).
Some peptides are written in HELM: one residue between dots, names in brackets for other building blocks, links after the first $.

Assay: general procedure: Fmoc solid-phase peptide synthesis; Rink amide resin; Oxyma/DIC
Conditions: whole synthesis, 214 nm, scale of the general procedure 0.1 mmol

| Substance | final HPLC purity [%] |
| --- | --- |
| PEPTIDE1{[dY].I.C.V.[W1Me].Q.D.W.G.A.H.R.C.[mI].[am]}$PEPTIDE1,PEPTIDE1,3:R3-13:R3$$$V2.0 | 79.3 |
| PEPTIDE1{[dY].I.C.V.[W1Me].Q.D.W.[Sar].A.H.S.C.[mI].[am]}$PEPTIDE1,PEPTIDE1,3:R3-13:R3$$$V2.0 | 96.1 |
| PEPTIDE1{[dY].I.C.V.[W1Me].Q.S.W.[Sar].A.H.R.C.[mI].[am]}$PEPTIDE1,PEPTIDE1,3:R3-13:R3$$$V2.0 | 100.0 |
| PEPTIDE1{[dY].I.C.V.[W1Me].Q.S.W.[Sar].A.H.S.C.[mI].[am]}$PEPTIDE1,PEPTIDE1,3:R3-13:R3$$$V2.0 | 94.2 |
| yICVWQDWSarAHRCmI | 100.0 |
